Source: the supplement of paper PMC10849652
Some of the results follow.

Sequences of proteins named here, by UniProt entry; tags and fusion partners are left off. A change or cut given only in a name is not applied to a line headed by its entry.
UniProt Q9H813: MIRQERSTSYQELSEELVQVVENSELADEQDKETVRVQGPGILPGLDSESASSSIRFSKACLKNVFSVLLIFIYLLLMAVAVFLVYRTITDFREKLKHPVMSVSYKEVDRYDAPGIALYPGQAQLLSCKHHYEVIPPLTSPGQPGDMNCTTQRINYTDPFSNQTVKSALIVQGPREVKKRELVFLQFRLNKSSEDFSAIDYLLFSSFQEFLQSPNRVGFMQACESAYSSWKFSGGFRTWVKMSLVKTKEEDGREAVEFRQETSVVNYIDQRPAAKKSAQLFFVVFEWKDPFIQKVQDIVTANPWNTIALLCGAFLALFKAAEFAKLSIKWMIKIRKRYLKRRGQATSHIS
UniProt P51160: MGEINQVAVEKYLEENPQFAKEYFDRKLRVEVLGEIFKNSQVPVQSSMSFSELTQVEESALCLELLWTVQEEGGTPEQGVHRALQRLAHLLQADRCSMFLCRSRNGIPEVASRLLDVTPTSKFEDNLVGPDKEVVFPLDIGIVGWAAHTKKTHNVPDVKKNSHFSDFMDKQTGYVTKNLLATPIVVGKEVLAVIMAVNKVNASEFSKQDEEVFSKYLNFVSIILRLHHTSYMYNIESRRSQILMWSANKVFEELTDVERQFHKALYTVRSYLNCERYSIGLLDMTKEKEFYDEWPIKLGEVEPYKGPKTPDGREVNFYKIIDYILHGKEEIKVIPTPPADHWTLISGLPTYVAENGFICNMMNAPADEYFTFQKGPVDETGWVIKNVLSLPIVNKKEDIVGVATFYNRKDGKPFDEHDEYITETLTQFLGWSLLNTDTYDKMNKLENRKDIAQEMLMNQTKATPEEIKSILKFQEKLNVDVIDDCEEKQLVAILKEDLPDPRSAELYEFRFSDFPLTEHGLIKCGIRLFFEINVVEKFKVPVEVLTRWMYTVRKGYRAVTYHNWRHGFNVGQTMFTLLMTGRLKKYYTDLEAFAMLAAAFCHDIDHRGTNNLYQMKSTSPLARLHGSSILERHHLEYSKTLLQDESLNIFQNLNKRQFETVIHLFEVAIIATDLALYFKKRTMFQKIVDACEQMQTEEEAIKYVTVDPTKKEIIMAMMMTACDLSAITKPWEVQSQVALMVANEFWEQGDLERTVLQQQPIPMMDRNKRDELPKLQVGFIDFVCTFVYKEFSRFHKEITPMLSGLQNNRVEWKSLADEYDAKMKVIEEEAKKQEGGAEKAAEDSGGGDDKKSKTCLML
UniProt Q96MG8: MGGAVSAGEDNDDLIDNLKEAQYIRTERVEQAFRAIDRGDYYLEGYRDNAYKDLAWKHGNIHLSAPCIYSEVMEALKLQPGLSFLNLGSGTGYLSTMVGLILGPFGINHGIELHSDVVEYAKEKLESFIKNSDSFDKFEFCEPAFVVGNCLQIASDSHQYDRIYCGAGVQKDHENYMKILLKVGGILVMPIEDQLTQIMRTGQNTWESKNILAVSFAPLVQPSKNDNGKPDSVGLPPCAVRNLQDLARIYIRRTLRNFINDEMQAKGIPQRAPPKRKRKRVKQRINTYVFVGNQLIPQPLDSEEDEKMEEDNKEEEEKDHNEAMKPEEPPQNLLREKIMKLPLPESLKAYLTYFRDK
UniProt Q96RV3: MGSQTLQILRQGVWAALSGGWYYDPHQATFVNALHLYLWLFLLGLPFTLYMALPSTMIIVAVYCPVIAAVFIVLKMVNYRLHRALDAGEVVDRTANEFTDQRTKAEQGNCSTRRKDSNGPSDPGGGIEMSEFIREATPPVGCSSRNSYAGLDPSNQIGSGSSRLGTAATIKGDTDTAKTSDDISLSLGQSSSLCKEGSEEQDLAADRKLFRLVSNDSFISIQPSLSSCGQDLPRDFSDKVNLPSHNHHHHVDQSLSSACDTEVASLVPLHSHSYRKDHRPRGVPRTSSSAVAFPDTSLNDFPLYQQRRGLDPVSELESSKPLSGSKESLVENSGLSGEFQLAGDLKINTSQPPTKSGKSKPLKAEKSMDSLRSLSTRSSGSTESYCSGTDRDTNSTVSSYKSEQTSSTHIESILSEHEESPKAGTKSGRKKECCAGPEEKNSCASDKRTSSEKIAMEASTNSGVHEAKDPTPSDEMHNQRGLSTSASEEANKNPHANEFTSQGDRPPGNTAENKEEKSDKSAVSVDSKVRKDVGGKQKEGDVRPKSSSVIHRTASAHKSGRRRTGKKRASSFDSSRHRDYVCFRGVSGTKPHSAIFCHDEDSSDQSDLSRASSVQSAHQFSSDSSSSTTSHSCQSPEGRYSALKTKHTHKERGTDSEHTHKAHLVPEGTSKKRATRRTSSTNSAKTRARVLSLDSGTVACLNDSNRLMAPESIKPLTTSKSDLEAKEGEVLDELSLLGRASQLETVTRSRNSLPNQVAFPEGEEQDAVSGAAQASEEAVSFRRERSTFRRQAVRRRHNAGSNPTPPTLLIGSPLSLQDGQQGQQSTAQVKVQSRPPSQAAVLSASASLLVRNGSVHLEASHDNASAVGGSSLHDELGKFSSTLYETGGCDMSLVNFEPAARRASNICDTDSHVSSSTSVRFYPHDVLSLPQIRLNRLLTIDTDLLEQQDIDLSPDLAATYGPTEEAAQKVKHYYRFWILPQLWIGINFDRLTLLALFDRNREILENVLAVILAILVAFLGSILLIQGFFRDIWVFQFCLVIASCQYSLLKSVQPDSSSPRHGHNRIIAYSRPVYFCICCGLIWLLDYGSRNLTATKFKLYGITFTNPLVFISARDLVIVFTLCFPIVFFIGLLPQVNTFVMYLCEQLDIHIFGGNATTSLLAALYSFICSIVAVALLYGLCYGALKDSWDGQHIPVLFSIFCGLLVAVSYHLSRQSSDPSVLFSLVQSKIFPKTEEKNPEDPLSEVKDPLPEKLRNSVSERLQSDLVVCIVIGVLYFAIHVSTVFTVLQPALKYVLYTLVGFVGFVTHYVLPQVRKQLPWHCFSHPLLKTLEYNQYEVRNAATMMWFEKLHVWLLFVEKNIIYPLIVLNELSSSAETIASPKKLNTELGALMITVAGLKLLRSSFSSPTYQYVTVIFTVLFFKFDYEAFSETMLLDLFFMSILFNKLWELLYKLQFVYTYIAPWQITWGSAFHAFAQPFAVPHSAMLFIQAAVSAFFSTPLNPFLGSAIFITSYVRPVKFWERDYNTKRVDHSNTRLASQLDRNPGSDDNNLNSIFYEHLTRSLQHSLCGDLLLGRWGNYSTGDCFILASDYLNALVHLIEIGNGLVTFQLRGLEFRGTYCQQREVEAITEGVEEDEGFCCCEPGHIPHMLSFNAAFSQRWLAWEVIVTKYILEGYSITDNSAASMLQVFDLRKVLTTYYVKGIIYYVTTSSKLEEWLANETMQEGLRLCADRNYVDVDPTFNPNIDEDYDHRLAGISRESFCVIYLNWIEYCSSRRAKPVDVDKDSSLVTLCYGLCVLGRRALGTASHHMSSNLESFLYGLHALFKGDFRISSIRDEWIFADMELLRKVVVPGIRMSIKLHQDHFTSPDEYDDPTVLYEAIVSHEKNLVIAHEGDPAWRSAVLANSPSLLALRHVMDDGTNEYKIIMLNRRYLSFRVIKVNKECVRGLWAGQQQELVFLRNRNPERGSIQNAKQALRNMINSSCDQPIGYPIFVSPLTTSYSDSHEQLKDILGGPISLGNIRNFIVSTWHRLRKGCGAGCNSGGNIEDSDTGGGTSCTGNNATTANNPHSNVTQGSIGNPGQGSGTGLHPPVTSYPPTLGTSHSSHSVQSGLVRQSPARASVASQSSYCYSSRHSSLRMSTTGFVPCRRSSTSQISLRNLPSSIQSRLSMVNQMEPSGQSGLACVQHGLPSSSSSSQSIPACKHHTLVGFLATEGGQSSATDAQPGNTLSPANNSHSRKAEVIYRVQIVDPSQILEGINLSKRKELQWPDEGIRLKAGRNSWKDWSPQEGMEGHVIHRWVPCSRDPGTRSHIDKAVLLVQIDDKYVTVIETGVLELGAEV
UniProt Q504Q3: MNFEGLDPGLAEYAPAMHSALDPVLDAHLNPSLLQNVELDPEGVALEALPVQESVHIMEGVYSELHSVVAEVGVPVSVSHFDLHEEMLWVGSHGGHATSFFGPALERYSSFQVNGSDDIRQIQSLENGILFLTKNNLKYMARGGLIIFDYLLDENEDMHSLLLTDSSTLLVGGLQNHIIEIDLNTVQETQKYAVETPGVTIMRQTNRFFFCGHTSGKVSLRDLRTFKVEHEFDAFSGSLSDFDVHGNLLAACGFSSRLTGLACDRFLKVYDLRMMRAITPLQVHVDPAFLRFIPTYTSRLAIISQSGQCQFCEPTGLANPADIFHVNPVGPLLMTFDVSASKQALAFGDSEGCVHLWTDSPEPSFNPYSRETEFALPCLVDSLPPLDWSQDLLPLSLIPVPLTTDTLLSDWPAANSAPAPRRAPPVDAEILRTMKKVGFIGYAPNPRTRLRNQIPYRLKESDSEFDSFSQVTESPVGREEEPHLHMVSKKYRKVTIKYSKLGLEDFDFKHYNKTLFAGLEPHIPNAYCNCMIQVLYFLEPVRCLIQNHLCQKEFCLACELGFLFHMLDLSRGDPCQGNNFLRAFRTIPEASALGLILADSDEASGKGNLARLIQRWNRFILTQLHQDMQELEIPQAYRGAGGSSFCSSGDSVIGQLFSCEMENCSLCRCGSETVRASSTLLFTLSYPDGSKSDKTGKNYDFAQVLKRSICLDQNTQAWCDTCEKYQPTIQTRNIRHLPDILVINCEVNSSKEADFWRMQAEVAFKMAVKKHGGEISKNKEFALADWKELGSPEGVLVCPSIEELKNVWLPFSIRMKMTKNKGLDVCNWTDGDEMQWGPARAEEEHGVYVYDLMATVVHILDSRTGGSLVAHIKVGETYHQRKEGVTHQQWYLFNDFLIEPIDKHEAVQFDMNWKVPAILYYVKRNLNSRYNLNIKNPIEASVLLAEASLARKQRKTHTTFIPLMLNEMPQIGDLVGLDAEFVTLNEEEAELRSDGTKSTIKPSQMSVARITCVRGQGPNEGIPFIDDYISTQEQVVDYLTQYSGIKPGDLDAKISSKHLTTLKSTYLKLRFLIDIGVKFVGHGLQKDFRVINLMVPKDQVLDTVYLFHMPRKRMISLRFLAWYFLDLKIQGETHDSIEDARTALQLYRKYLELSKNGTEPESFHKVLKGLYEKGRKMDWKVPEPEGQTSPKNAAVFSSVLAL
UniProt P30039: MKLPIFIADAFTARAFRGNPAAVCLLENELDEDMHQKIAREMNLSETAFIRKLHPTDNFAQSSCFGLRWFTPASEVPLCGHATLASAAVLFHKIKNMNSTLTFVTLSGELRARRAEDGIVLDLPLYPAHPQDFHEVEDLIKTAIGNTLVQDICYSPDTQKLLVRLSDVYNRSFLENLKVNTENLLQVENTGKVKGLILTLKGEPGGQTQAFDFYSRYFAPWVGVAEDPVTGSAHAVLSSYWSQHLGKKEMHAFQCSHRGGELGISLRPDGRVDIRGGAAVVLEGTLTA
UniProt Q8N165: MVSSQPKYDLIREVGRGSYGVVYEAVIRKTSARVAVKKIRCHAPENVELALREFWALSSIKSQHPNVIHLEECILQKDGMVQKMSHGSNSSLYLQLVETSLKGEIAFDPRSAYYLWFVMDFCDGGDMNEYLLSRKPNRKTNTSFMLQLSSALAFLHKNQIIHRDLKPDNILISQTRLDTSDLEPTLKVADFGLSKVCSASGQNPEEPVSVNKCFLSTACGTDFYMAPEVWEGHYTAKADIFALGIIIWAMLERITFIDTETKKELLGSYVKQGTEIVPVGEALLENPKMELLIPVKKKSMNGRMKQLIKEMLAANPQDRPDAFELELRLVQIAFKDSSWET
UniProt O60683: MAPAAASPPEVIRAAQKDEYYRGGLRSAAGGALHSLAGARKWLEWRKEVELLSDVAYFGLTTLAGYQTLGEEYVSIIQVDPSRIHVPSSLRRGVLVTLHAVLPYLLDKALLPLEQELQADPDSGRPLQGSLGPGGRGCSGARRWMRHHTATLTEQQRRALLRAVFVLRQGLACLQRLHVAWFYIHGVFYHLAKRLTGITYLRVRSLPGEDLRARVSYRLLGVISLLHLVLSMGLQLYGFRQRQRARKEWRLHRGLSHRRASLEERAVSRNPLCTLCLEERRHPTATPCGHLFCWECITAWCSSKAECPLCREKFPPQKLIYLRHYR
UniProt Q9NV79: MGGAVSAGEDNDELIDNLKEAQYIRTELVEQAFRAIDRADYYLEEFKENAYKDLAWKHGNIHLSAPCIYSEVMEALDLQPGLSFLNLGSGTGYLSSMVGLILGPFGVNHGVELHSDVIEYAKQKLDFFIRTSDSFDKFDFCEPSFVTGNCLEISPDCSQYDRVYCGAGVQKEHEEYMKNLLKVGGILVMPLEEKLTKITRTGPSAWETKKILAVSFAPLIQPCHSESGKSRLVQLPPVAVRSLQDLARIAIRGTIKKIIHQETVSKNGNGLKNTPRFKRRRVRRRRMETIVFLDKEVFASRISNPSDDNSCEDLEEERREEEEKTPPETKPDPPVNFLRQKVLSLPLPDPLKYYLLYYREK

These targets were tested with Cc1ccc(NC(=O)c2ccc(CN3CC[C@H](N(C)C)C3)c(C(F)(F)F)c2)cc1Nc1nccc(-c2cncnc2)n1 [bafetinib] (assay: log2 fold change, soluble protein after heating vs DMSO (PISA); higher = thermal stabilisation; K562 cells, 10 uM, 30 min; active = over 0.2 and 3.5 SD of the protein, either way, in both replicates (recomputed)).
In short: (§1)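 Quantification of soluble protein used TMTpro 16plex LC-MS/MS, with channel sums equalised. Samples were the supernatant after 21,000xg for 90 min of pooled aliquots from K562 cells (2×10^6 cells/mL) treated with 10 μM compound for 30 min, heated for 3 min over 48°C-58°C, and extracted in PBS with 0.5% NP-40 at 4°C. Values, from duplicates, describe thermal stability against control samples on a log2 fold-change scale.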
For PACC1 (UniProt Q9H813), the log2 fold change was inactive: -0.057. With PAFAH2 (UniProt Q99487) the log2 fold change was inactive: -0.083. In the case of PDE6C (UniProt P51160), the log2 fold change is reported as inactive: 0.124. For PCMTD1 (UniProt Q96MG8), the log2 fold change was inactive: -0.286. For PCNX1 (UniProt Q96RV3), the log2 fold change was inactive: -0.112. For PDCD2 (UniProt Q16342), the log2 fold change was inactive: 0.095. PAN2 (UniProt Q504Q3) was tested, and the log2 fold change was inactive: -0.052. With PCBP2 (UniProt F8VZX2) the log2 fold change was inactive: 0.029. For PDE4A (UniProt P27815), the log2 fold change was inactive: -0.157. In the case of PBLD (UniProt P30039), the log2 fold change is reported as inactive: -0.013. With PDP1 isoform 2 (UniProt Q9P0J1) the log2 fold change was inactive: 0.057. With PCGF5 (UniProt Q86SE9) the log2 fold change was inactive: 0.041. In the case of PAFAH1B1 (UniProt I3L3N5), the log2 fold change is reported as inactive: -0.04. With PDIK1L (UniProt Q8N165) the log2 fold change was inactive: 0.166.

The targets below were run with Cc1cccc(CC(=O)N2CCc3c2ccc(-c2cn(C)c4ncnc(N)c24)c3F)n1 in the same assay as above.
In short: as §1
PAF1 (UniProt Q8N7H5) was tested, and the log2 fold change was inactive: -0.1. For PAICS (UniProt D6RF62), the log2 fold change was inactive: 0.396. In the case of PEX10 isoform 2 (UniProt O60683), the log2 fold change is reported as inactive: 0.035. PARD3 (UniProt Q8TEW0) was tested, and the log2 fold change was inactive: -0.227. In the case of PAN3 (UniProt Q58A45), the log2 fold change is reported as inactive: 0.015. For PDIA4, A0A499FI48, the log2 fold change was inactive: -0.141. In the case of PCM1 isoform 2 (UniProt Q15154), the log2 fold change is reported as inactive: 0.209.

What follows are targets tested with Cc1cn(-c2cc(NC(=O)c3ccc(C)c(Nc4nccc(-c5cccnc5)n4)c3)cc(C(F)(F)F)c2)cn1 [nilotinib] in the same assay as above.
In short: as §1
For PACC1 (UniProt Q9H813), the log2 fold change was inactive: 0.027. For PDE6C (UniProt P51160), the log2 fold change was inactive: -0.28. PCMTD1 (UniProt Q96MG8) was tested, and the log2 fold change was inactive: -0.023. PCNX1 (UniProt Q96RV3) was tested, and the log2 fold change was inactive: 0.007. PCMTD2 (UniProt Q9NV79) was tested, and the log2 fold change was inactive: -0.012. For PAN2 (UniProt Q504Q3), the log2 fold change was inactive: -0.123. With PCBP2 (UniProt F8VZX2) the log2 fold change was inactive: 0.029. PBLD (UniProt P30039) was tested, and the log2 fold change was inactive: -0.005. For PAPOLA (UniProt G3XAH6), the log2 fold change was inactive: -0.129. For PDIK1L (UniProt Q8N165), the log2 fold change was inactive: -0.026.

What follows are targets tested with Cc1nc(Nc2n[nH]c3c2CN(C(=O)N[C@H](CN(C)C)c2ccccc2)C3(C)C)c2sccc2n1 in the same assay as above.
In short: as §1
In the case of PACC1 (UniProt Q9H813), the log2 fold change is reported as inactive: 0.062. With PDE6C (UniProt P51160) the log2 fold change was inactive: 0.116. For PCMTD1 (UniProt Q96MG8), the log2 fold change was inactive: 0.147. PCNX1 (UniProt Q96RV3) was tested, and the log2 fold change was inactive: 0.009. In the case of PCMTD2 (UniProt Q9NV79), the log2 fold change is reported as inactive: 0.119. PAN2 (UniProt Q504Q3) was tested, and the log2 fold change was inactive: -0.02. In the case of PCBP2 (UniProt F8VZX2), the log2 fold change is reported as inactive: -0.112. In the case of PBLD (UniProt P30039), the log2 fold change is reported as inactive: 0.009. In the case of PAPOLA (UniProt G3XAH6), the log2 fold change is reported as inactive: -0.249. For PDIK1L (UniProt Q8N165), the log2 fold change was active: 0.578.

The targets below were run with Cc1nc(Nc2ncc(C(=O)Nc3c(C)cccc3Cl)s2)cc(N2CCN(CCO)CC2)n1 [dasatinib] in the same assay as above.
In short: as §1
In the case of PACC1 (UniProt Q9H813), the log2 fold change is reported as inactive: 0.04. In the case of PAF1 (UniProt Q8N7H5), the log2 fold change is reported as inactive: -0.04. With PAFAH2 (UniProt Q99487) the log2 fold change was inactive: -0.146. PAICS (UniProt D6RF62) was tested, and the log2 fold change was inactive: 0.217. For PDE6C (UniProt P51160), the log2 fold change was inactive: -0.079. In the case of PEX10 isoform 2 (UniProt O60683), the log2 fold change is reported as inactive: 0.112. With PCMTD1 (UniProt Q96MG8) the log2 fold change was inactive: -0.174. PDCD2 (UniProt Q16342) was tested, and the log2 fold change was inactive: -0.111. With PAN2 (UniProt Q504Q3) the log2 fold change was inactive: 0.013. With PCBP2 (UniProt F8VZX2) the log2 fold change was inactive: -0.144. PDIA4, A0A499FI48 was tested, and the log2 fold change was inactive: -0.203. PBLD (UniProt P30039) was tested, and the log2 fold change was inactive: -0.047. With PCGF6 (UniProt Q9BYE7) the log2 fold change was inactive: -0.036. In the case of PARP4 (UniProt Q9UKK3), the log2 fold change is reported as inactive: 0.013. With PCGF5 (UniProt Q86SE9) the log2 fold change was inactive: -0.49. With PAFAH1B1 (UniProt I3L3N5) the log2 fold change was inactive: 0.167. For PDIK1L (UniProt Q8N165), the log2 fold change was inactive: -0.081. With PCM1 isoform 2 (UniProt Q15154) the log2 fold change was inactive: 0.07.

What follows are targets tested with Cc1ncc(-c2ccnc(Nc3ccc(S(C)(=O)=O)cc3)n2)n1C(C)C in the same assay as above.
In short: as §1
In the case of PACC1 (UniProt Q9H813), the log2 fold change is reported as inactive: 0.105. PDE6C (UniProt P51160) was tested, and the log2 fold change was inactive: -0.178. For PCMTD1 (UniProt Q96MG8), the log2 fold change was inactive: 0.093. For PCNX1 (UniProt Q96RV3), the log2 fold change was inactive: 0. PCMTD2 (UniProt Q9NV79) was tested, and the log2 fold change was inactive: 0.25. With PAN2 (UniProt Q504Q3) the log2 fold change was inactive: -0.09. PCBP2 (UniProt F8VZX2) was tested, and the log2 fold change was inactive: 0.049. With PBLD (UniProt P30039) the log2 fold change was inactive: 0.052. In the case of PAPOLA (UniProt G3XAH6), the log2 fold change is reported as inactive: -0.063. In the case of PDIK1L (UniProt Q8N165), the log2 fold change is reported as inactive: -0.037.

These targets were tested with Cn1cc(-c2ccc3c(c2)CCN3C(=O)Cc2cccc(C(F)(F)F)c2)c2c(N)ncnc21 in the same assay as above.
In short: as §1
With PACC1 (UniProt Q9H813) the log2 fold change was inactive: 0.018. For PAF1 (UniProt Q8N7H5), the log2 fold change was inactive: 0.208. PAFAH2 (UniProt Q99487) was tested, and the log2 fold change was inactive: 0.079. In the case of PDE6C (UniProt P51160), the log2 fold change is reported as inactive: 0.148. For PEX10 isoform 2 (UniProt O60683), the log2 fold change was inactive: -0.001. PDCD2 (UniProt Q16342) was tested, and the log2 fold change was inactive: -0.311. PDXP (UniProt B1AHD3) was tested, and the log2 fold change was inactive: 0.144. PCBP2 (UniProt F8VZX2) was tested, and the log2 fold change was inactive: -0.022. PDE4DIP (UniProt E9PS60) was tested, and the log2 fold change was inactive: -0.007. For PDE4A (UniProt P27815), the log2 fold change was inactive: -0.016. PBLD (UniProt P30039) was tested, and the log2 fold change was inactive: 0.065. PAFAH1B1 (UniProt I3L3N5) was tested, and the log2 fold change was inactive: -0.215. PDIK1L (UniProt Q8N165) was tested, and the log2 fold change was inactive: 0.05.
